Assay results reported in paper doi:10.1101/2024.01.16.575949.
Results are given in words; binding and its absence hold for the method and conditions named. In cells and extracts the contact can be indirect. Here binding means that the protein was enriched with, or labelled near, the bait; the list need not be complete. For some of these results: No binding means not detected with the bait.

How the values were obtained:
Assay in all cases: affinity purification with mass spectrometry
Halo-ING1 = target: T1, Halo-ING1 (UniProt Q9UK53)
T1 sequence: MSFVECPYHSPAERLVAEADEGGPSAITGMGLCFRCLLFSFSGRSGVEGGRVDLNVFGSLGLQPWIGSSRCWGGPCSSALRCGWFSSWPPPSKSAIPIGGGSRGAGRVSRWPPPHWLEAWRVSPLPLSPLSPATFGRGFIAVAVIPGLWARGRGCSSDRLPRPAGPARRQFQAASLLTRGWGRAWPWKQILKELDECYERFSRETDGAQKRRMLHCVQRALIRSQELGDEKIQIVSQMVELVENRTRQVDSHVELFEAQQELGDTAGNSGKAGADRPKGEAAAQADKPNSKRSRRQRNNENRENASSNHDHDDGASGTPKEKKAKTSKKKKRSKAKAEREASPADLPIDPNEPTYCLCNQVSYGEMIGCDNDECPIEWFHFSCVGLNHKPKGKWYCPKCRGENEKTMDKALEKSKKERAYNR

Halo-SAP30L = target: T2, Halo-SAP30L (UniProt Q9HAJ7)
T2 sequence: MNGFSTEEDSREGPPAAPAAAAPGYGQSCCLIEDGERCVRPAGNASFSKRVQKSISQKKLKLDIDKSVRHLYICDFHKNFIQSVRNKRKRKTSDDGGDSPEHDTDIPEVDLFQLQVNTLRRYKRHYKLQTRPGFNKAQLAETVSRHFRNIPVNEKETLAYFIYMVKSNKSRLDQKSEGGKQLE

Halo-SIN3A_Δ7_968-1186 = target: Halo-SIN3A_Δ7_968-1186
Halo-SUDS3 = target: T3, Halo-SUDS3 (UniProt Q9H7L9)
T3 sequence: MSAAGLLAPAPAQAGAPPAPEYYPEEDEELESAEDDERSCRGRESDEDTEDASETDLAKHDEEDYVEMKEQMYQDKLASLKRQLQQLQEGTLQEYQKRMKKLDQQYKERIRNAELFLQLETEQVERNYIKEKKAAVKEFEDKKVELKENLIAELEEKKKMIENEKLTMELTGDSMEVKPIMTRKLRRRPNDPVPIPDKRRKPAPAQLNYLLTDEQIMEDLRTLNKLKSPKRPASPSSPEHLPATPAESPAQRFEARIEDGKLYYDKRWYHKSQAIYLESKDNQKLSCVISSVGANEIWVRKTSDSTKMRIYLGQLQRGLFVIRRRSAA

B1: endogenous FAM60A (protein, UniProt Q9NP50 1-221)
chain: MFGFHKPKMYRSIEGCCICRAKSSSSRFTDSKRYEKDFQSCFGLHETRSGDICNACVLLVKRWKKLPAGSKKNWNHVVDARAGPSLKTTLKPKKVKTLSGNRIKSNQISKLQKEFKRHNSDAHSTTSSASPAQSPCYSNQSDDGSDTEMASGSNRTPVFSFLDLTYWKRQKICCGIIYKGRFGEVLIDTHLFKPCCSNKKAAAEKPEEQGPEPLPISTQEW
- binding (Halo-ING1): no binding
- binding (Halo-SAP30L): binds
- binding (Halo-SIN3A_Δ7_968-1186): no binding
- binding (Halo-SUDS3): binds
